PubChem BioAssay AID1508597 – Cure First | 2020
Shown is an unselected part of the about 2,100 reagents, under one of the conditions tested. 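Calls flag viability under 80% in either arm, not effects specific to rucaparib; the reference for percent is not stated.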 A number with no mark means an inactive call. Some reagents were tested in more than one well and are listed for each. Not given: the 100% reference.

Assay: 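Survival screen with siRNA in ovarian cancer cells derived from patients, with or without rucaparib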 (primary screen)
Cells: human ovarian carcinoma lines grown from tumours: OCI-P5x (papillary serous) and OCI-C5x (clear cell)
Reagent: siRNA pool against human genes, 1.25 pmol siRNA per well
Time to read-out: 72 h or 96 h, depending on the cell culture
Treatment: rucaparib 20 µM (about IC30) or vehicle, present until read-out
Rucaparib or vehicle: Rucaparib
Cell line: OCI-C5x (clear cell)
Read-out: 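Luminescent ATP-based viability assay read 72 or 96 h after transfection, depending on culture, given as normalised percent viability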
Scale: viability, normalised: higher = more viable cells remaining
Call rule: 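a well counts as a hit if its normalised viability is under 80 percent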
Calls: active = viability under 80%; inactive = viability 80% or more

NRXN2 [SID405527093], technical replicate 1 gave viability, normalised (%) = 61.8 (active). For NRXN2 [SID405527093], technical replicate 2 the deposit lists viability, normalised (%) = 36.5 (active). With NRXN2 [SID405527093], technical replicate 3, the entry reads viability, normalised (%) = 50.2 (active). With PIP4K2C [SID405527893], technical replicate 1, the values are viability, normalised (%) = 52.8 (active). For PIP4K2C [SID405527893], technical replicate 2, the values are viability, normalised (%) = 44.2 (active). For PIP4K2C [SID405527893], technical replicate 3, the values are viability, normalised (%) = 50.5 (active).

With CSNK2A2 [SID405527521], technical replicate 1, the values are viability, normalised (%) = 46.1 (active). For CSNK2A2 [SID405527521], technical replicate 2, the values are viability, normalised (%) = 41.9 (active). CSNK2A2 [SID405527521], technical replicate 3 scored viability, normalised (%) = 49.7 (active). CDK7 [SID405527590], technical replicate 1 gave viability, normalised (%) = 61.5 (active). CDK7 [SID405527590], technical replicate 1 showed viability, normalised (%) = 76.5 (active). CDK7 [SID405527590], technical replicate 2 showed viability, normalised (%) = 63.3 (active).

CDK7 [SID405527590], technical replicate 2 gave viability, normalised (%) = 66 (active). With CDK7 [SID405527590], technical replicate 3, the entry reads viability, normalised (%) = 59.3 (active). With CDK7 [SID405527590], technical replicate 3, the entry reads viability, normalised (%) = 66.5 (active). RYR1 [SID405527266], technical replicate 1 gave viability, normalised (%) = 41.6 (active). With RYR1 [SID405527266], technical replicate 2, the entry reads viability, normalised (%) = 38.3 (active). RYR1 [SID405527266], technical replicate 3 showed viability, normalised (%) = 32.4 (active).

3 entries from above, sorted by “viability, normalised (%)”, low to high.
CDK7 [SID405527590], technical replicate 1 → viability, normalised (%) = 61.5 (active)
CDK7 [SID405527590], technical replicate 2 → viability, normalised (%) = 63.3 (active)
CDK7 [SID405527590], technical replicate 1 → viability, normalised (%) = 76.5 (active)

The listing continues.
TSPYL5 [SID405526594], technical replicate 1 showed viability, normalised (%) = 84.1. TSPYL5 [SID405526594], technical replicate 2 scored viability, normalised (%) = 80.2. TSPYL5 [SID405526594], technical replicate 3 scored viability, normalised (%) = 64.4 (active). EIF2AK1 [SID405527663], technical replicate 1 gave viability, normalised (%) = 48.7 (active). EIF2AK1 [SID405527663], technical replicate 2 showed viability, normalised (%) = 50.3 (active). EIF2AK1 [SID405527663], technical replicate 3 showed viability, normalised (%) = 67.9 (active).

For PWWP3B [SID405527041], technical replicate 1 the deposit lists viability, normalised (%) = 53.5 (active). PWWP3B [SID405527041], technical replicate 2 showed viability, normalised (%) = 53.2 (active). With PWWP3B [SID405527041], technical replicate 3, the values are viability, normalised (%) = 52.9 (active). For DDX10 [SID405528170], technical replicate 1, the entry reads viability, normalised (%) = 55.3 (active). For DDX10 [SID405528170], technical replicate 2, the entry reads viability, normalised (%) = 54.2 (active). With DDX10 [SID405528170], technical replicate 3 the deposit lists viability, normalised (%) = 40.1 (active).

GRK4 [SID405528550], technical replicate 1 showed viability, normalised (%) = 37.5 (active). GRK4 [SID405528550], technical replicate 2 scored viability, normalised (%) = 42.1 (active). GRK4 [SID405528550], technical replicate 3 gave viability, normalised (%) = 33.6 (active). For MOS [SID405528518], technical replicate 1 the deposit lists viability, normalised (%) = 67.1 (active). With MOS [SID405528518], technical replicate 2, the values are viability, normalised (%) = 62.7 (active). For MOS [SID405528518], technical replicate 3, the values are viability, normalised (%) = 48 (active).

ATF7IP [SID405527999], technical replicate 1 showed viability, normalised (%) = 60.3 (active). ATF7IP [SID405527999], technical replicate 2 scored viability, normalised (%) = 58.5 (active). ATF7IP [SID405527999], technical replicate 3 scored viability, normalised (%) = 58.1 (active). With KSR2 [SID405527800], technical replicate 1, the values are viability, normalised (%) = 74.7 (active). With KSR2 [SID405527800], technical replicate 2, the entry reads viability, normalised (%) = 55.4 (active). For KSR2 [SID405527800], technical replicate 3, the entry reads viability, normalised (%) = 59.1 (active).
